Source: US20260234660A1, “TREATMENT OF MUSCLE RELATED DISORDERS WITH ANTI-HUMAN CACNG1 ANTIBODIES” (Regeneron Pharmaceuticals, Inc., priority 2023, published 2026)
Results are given in words; binding and its absence hold for the method and conditions named. Some results given as binding are weak or reduced against the parent protein; the word gives no strength.

Protein sequences, listed by entry. Tags and fused reporters are not part of them. Lines headed by an entry give the natural chain unless they say otherwise; changes in a name come on top.
UniProt Q06432: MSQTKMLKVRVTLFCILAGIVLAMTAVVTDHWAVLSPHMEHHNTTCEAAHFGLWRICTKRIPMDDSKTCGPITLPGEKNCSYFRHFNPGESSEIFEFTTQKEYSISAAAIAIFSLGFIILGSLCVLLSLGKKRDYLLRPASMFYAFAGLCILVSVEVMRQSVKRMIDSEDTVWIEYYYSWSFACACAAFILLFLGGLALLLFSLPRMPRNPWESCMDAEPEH

B1: H2aM31944N (antibody, mouse IgG2a, kappa, V domains shown)
VH: QVQLVESGGGVVQPGRSLRLSCEASGITFRNYGMHWVRQAPGKGLEWVAVMWYDGSNKYYADSVKGRFTISRDNSKNTVYLQMNSLRAEDTAVYYCARRGHIATAAPFDYWGQGTLVTVSS
VL: DIQMTQSPSSLSASVGDRVTISCRASQSISSYLNWYQQKPGKAPKVLMYAASSLQSGVPSRFSGSGSGTDFTLTISSLQPEDFATYYCQQSYSTPPITFGQGTRLEIKR
B2: REGN10715 (antibody, human IgG4 S228P, kappa, V domains shown)
VH: QVQLQQWGAGLLKPSATLSRTCAVYGGSFSGYYWNWIRQSPGKGLEWIGEILHSGRTNYNPSLKSRVTISVDTSKNQFSLKLTSVTAADTAVYYCAGRIAARHGWFDPWGQGTLVTVSS
VL: DIQMTQSPSSVSTSVGDRVTISCRASQDIRKWLAWYQQKPGKAPKLLIYATSSLQSGVPSRFSGSGSGTDFTLTISSLQPEDFATYFCQQANSFPFTFGQGTKLEIKR
B3: REGN9909 (antibody, mouse IgG2a, kappa, V domains shown)
VH: EVQLLESGGGLVQPGGSLRLSCAASGFTFNNYGMSWVRQGPGKGLEWVSSISGSGGTTFYADSVKGRFTISRDNSKNTLYLQMNSLRAEDTAVYYCGKGGYCSSSGCRHYGMDVWGQGTTVTVSS
VL: QSVLTQPPSASGTPGQRVTISCSGSSSNIGNNYIYWYQRLPGTTPKLLIYRNNQRPSGVPDRFSGSKSGTSASLAISGLRSEDEADYYCAAWDDTLSGYVFGTGTKVTVLR
B4: REGN10716 (antibody, human IgG4 S228P, kappa, V domains shown)
VH: QVQLQESGPGLVKPSETLSLTCTVSGDSINNYYWTWLRQPPGKGLEWIGYIYYSGSANYNPSLKSRVTISVDTSKNQFSLKLNSVTAADTAVYYCARGAVKYFRHWGQGTLVTVSS
VL: EIVLTQSPGTLSLSPGERATLSCRASQTINHNNLAWYQQRPGQAPRLLIYGASNRATAIPDRFSGSGSGTDFTLTISRLEPEDFEVYSCQQYGSLPLTFGGGTKVEIKR
B5: REGN10713 (antibody, human IgG4 S228P, lambda, V domains shown)
VH: EVQLVESGGNLVQPGGSLRLSCAASGFTFTSHAMNWVRQAPGKGLEWVSVITGRGFDTHYADSVKGRFTISRDISKNTLYLQMNSLRAEDTAVYYCAKGLYDSGNYYIDYWGQGTLVTVSS
VL: QSVLTQPPSVSAAPGQKVTISCSGSSSNIGNNYVSWYQQLPGTAPKLLIYDNNKRPSGIPDRFSGSKSGTSATLGITGLQTGDEADYYCGTWDLSLSFNWVFGGGTKLTVLG
B6: REGN10717 (antibody, human IgG4 S228P, kappa, V domains shown)
VH: QVQLVESGGGVVQPGRSLRLSCAASGFTFSTYGMHWVRQAPGKGLEWVAVIWHDGSDKYYVDSVKGRFSIARDNSKNTLYLQMNSLRVEDTGIYYCARRGIRGTVFDHWGLGTLVTVSS
VL: DIQMTQSPSTLSASVGDRVTLTCRASQSISNKLAWYQQKPGKAPNLLIYKASNLESGVPSRFSGSGSGTEFTLTISSLQPDDFATYYCQQYNSYSWTFGQGTKVEIKR

What follows are binders tested against human CACNG1, cell surface-expressed (human) (UniProt Q06432) (assay: human myotubes in vitro; closing statement of Example 4 (antibodies of FIG. 2)).

| binding | Binder |
| --- | --- |
| binds | B1 |

Each binder was assayed against nanodisc embedded human CACNG1 expressed with a C-terminal PADRE-Flag-His tag (human) (UniProt Q06432) (assay: SPR (Biacore T200), 25 C, anti-His-captured human CACNG1 nanodisc).

| binding | Binder |
| --- | --- |
| binds | B2 |
| binds | B3 |
| binds | B4 |
| binds | B5 |
| binds | B6 |
| binds | B1 |
